Assay results taken from patent publication US8821862B2, “Soluble β-N-acetylglucosaminidase based antibiofilm compositions and uses thereof” (Kane Biotech Inc., priority 2002, dated 2014).
For at least one compound, name, drawing or mass did not settle the structure.

System: biofilm-embedded S. epidermidis
Assay: In vitro biofilm-dispersal assay in microcentrifuge tubes (sensitivity of biofilm-embedded cells, CFU plating)
Format: cell-based, Staphylococcus epidermidis
Details: 3 hours, 37° C.

CO[C@H]1/C=C/O[C@@]2(C)Oc3c(C)c(O)c4c(O)c(c(/C=N/N5CCN(C)CC5)c(O)c4c3C2=O)NC(=O)/C(C)=C\C=C\[C@H](C)[C@H](O)[C@@H](C)[C@@H](O)[C@@H](C)[C@H](OC(C)=O)[C@@H]1C [rifampicin]
inhibitory effect on biofilm-embedded S. epidermidis (rifampicin 100 μg/ml in combination with DispersinB 20 μg/ml): enhanced the inhibitory effect

Cn1nnnc1SCC1=C(C(=O)O)N2C(=O)[C@@H](NC(=O)[C@H](OC=O)c3ccccc3)[C@H]2SC1 [cefamandole nafate]
inhibitory effect on biofilm-embedded S. epidermidis (cefamandole nafate 0.1 μg/ml in combination with DispersinB 20 μg/ml): enhanced the inhibitory effect
